No constants are given. Whether binding was seen depends on the method and setting. Some binding calls cover weakened binding; strength is not graded here.
Experiments:
[1] = molecular target: cynomolgus monkey IL-17A (cynomolgus monkey); assay: KinExA
[2] = molecular target: cynomolgus monkey IL-17A (cynomolgus monkey); assay: ECL (Origen)
mouse IL-17A = molecular target: T1, mouse IL-17A (mouse, UniProt Q62386 26-158, limits assumed); assay: ECL (Origen)
T1 construct: also called mu IL-17A; mu IL-17
T1 sequence (looked up): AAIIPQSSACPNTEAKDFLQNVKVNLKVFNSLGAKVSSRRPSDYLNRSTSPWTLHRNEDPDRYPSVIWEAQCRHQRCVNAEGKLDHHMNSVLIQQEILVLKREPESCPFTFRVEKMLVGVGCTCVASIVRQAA

Measured: binding

B1: rat 1D10 (antibody, V domains shown)
VH: QVQLKESGPGLVQPSQTLSLTCTVSGFSLTNYYVHWVRQPPGKGLEWMGGVWNDGDTSYNSVLRSRLSITRDTSKSQVLLKMSSLQTEDTATYYCAREGREGFVGYYVMDAWGPGASVTVSS
VL: DIQMTQSPSFLSASVGERVTLSCKASQNINKYLDWFQQKLGEAPKLLIYNADNLHTGIPSRFSGSGSFSDFILTISSLQPEDDATYFCLQRESWPYTFGAGTKLELKR
notes: Parental rat monoclonal antibody; also called ID10; anti-IL-17A antibody 1D10
binds: [1] | [2] | mouse IL-17A

B2: rat 23E12 (antibody, V domains shown)
VH: QVQLKESGPGLVQPSQTLSLTCTVFGFSLTNNGVTWVRQPPGKGLEWIAEVSSGGSTDYNSALKSRLSISRDTSKSQVFLRMNSLQTEDTAIYFCARQEVFTGLLDYWGQGVMVTVSS
VL: DIQMTQSPASLSASLGETVTIQCQASEDIYSGLAWYHQKPGKSPQLLILGASRLHDGVPSRFSGSGSGIEYSLKINNMQTEDEGIYFCQQGLKYPPTFGGGTKLELKR
notes: Parental rat monoclonal antibody (hybridoma PTA-7740)
binds: [1] | [2] | mouse IL-17A

Source: patent publication US20090175881A1 (SCHERING, published 2009)
